Measurements as given in PubChem BioAssay AID2685 (National Center for Advancing Translational Sciences (NCATS), 2010).
The other results are listed elsewhere or left out. The main result of the screen is listed elsewhere. These columns were measured beside it and carry no call. Most of these compounds were active or inconclusive in the main read-out, so they are no random draw. Words in brackets tell the shape of the fitted curve; partial curves, single points and poor fits give uncertain potencies.

Experiment: qHTS Assay for Lipid Storage Modulators in Drosophila S3 Cells;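 as to cell number change: cells counted by Cell Tracker Red CMTPX staining in the red channel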
Conditions: BODIPY lipid droplet fluorescence, 18-24 h; for cell number change: measured here: cell count max response, cells fed with added oleic acid
Outline: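 Laser-scanning cytometry quantifies lipid droplet accumulation (500–530 nm total intensity; droplet/cell object ratio) in oleic acid-fed (400 uM added) Drosophila S3 cells treated with a concentration series. 20 uM Triacsin C defined 100% inhibition.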

[1] = measured here: lipid fluorescence (Fed channel) AC50, cells fed with added oleic acid
[2] = measured here: cell number channel AC50, cells fed with added oleic acid

| SMILES | cell number change [%] | AC50 [1] | AC50 [2] |
| --- | --- | --- | --- |
| COCCCn1cc(C(=O)c2ccccc2OCC(=O)Nc2cccc(F)c2)cc(C#N)c1=O | 22.6 | – | – |
| Cn1cc(/C=C(\NC(=O)c2ccccc2Cl)C(=O)NCCCN2CCOCC2)c2ccccc21 | 6.13 | 18.4 µM [rising, single point] | – |
| O=C1[C@@H]2Cc3c([nH]c4ccccc34)C(c3cccc([N+](=O)[O-])c3)N2C(=O)CN1C1CCN(Cc2ccccc2)CC1 (stereo partly specified) | -45.6 | 11.6 µM [falling, partial curve] | 13 µM [falling, partial curve] |
| CC1CCCC(NC(=O)CNCc2ccccc2F)C1C (stereo unspecified) | 12.5 | 23.1 µM [falling, partial curve] | 4.61 µM [falling, single point] |
| Cc1ccc(C(C)NC(=O)CSc2ccc(S(=O)(=O)N3CCOCC3)cn2)cc1C (stereo unspecified) | 5.33 | 0.651 µM [falling, single point] | – |
| C#CCOCCOCCOCCNc1nc(N2CCN(C(=O)CCCCCCCCCCNC(=O)Cn3cc(CCCCCN)nn3)CC2)nc(N2CCN(C(=O)CCCCCCCCCCNC(=O)[C@@H]([C@H](C)O)n3cc(C)nn3)CC2)n1 | -54.6 | – | 29.1 µM [falling, single point] |
| Cc1nn(-c2ccccc2)c(Cl)c1/C=N/NC(=O)C1COc2ccccc2O1 (stereo unspecified) | 3.69 | – | – |
| c1ccc(CCn2c3ccccc3c3nnc(SCc4ccc5nonc5c4)nc32)cc1 | – | 1.3 µM [rising, full curve] | 3.26 µM [rising, partial curve] |
| CCN(Cc1ccccc1)C(=O)COc1ccccc1 | 20.2 | 29.1 µM [rising, single point] | – |
| CCOc1ccc(NC2=CC(=O)CC(c3ccco3)C2)cc1 (stereo unspecified) | -2.88 | – | – |
| COc1ccc(S(=O)(=O)N2CCC3(CC2)OCCO3)cc1 | -26.2 | – | – |
| COc1ccccc1NC(=S)NC(=O)C(C)C | – | 0.731 µM [falling, single point] | – |
| CCNc1ccc(S(=O)(=O)NCCN(C)C)cc1[N+](=O)[O-] | -37.3 | 9.2 µM [falling, partial curve] | 0.0058 µM [falling, full curve, poor fit] |
| CC(C)C12CN3CC(C(C)C)(CN(C1)C3c1ccc3c(c1)OCO3)C2=O (stereo unspecified) | – | 4.61 µM [rising, single point] | – |
| Cc1ccsc1CN(C)Cc1nc(C2CC2)no1 | -27.2 | 29.1 µM [falling, single point] | – |
| O=C(Nc1ccccc1-c1ccccc1)c1ccc(Br)o1 | -0.621 | 1.3 µM [rising, partial curve] | 1.64 µM [rising, partial curve] |
| COC(=O)Cn1nnc(N2CCOCC2)n1 | 27.3 | 32.6 µM [rising, partial curve, poor fit] | – |
| Cc1c(C(=O)Nc2ccc(Cl)cc2)c2ccccn2c1C(=O)c1ccccc1 | -21.8 | 18.4 µM [falling, partial curve] | – |
| O=C(N/N=C/c1cccnc1)C1CCCN(S(=O)(=O)c2ccccc2)C1 (stereo unspecified) | – | – | 6.51 µM [rising, single point] |
| COc1ccc(Cl)cc1C(=O)Nc1ccncc1 | -17.7 | – | – |
| COc1cc(/C=C/C(=O)OCC(=O)N2c3ccccc3NC(=O)C2(C)C)cc(OC)c1OC | -17.7 | – | – |

| SMILES | cell number change [%] | AC50 [1] | AC50 [2] |
| --- | --- | --- | --- |
| CCOc1ccc(C(=O)/C=C/Nc2ccc(S(=O)(=O)Nc3onc(C)c3C)cc2)cc1 | 12.5 | 5.8 µM [rising, single point] | – |
| CC(C)N1CCC(N2CCN(Cc3cnc(-c4ccccc4)s3)CC2CCO)CC1 (stereo unspecified) | -5.39 | 4.11 µM [falling, partial curve, poor fit] | – |
| COc1ccc(Nc2nc(-c3cccnc3)nc3ccccc23)cn1 | -39.7 | – | 2.31 µM [falling, full curve, poor fit] |
| COC(=O)CNC(=O)C1CC(=O)N(CCc2ccc(F)cc2)C1 (stereo unspecified) | 11.8 | 6.51 µM [rising, single point] | – |
| Cc1ccc(CNC(=O)CN(CCc2ccccc2)S(C)(=O)=O)cc1 | -10.6 | 0.116 µM [falling, full curve, poor fit] | 0.092 µM [falling, full curve, poor fit] |
| COc1cc(/C=N/Nc2nc3ccccc3[nH]2)ccc1O | -19.9 | 16.4 µM [falling, single point] | – |
| CCCCC(=O)N/N=C/c1sccc1C | -10.6 | 0.164 µM [rising, full curve] | – |
| COc1ccc(C(=S)N2CCOCC2)cc1OC(=O)c1ccccc1 | 41.4 | 29.1 µM [rising, single point] | 18.4 µM [rising, partial curve, poor fit] |
| Clc1ccc(-n2nnc(-c3cccnc3Cl)n2)cn1 | -15.5 | 9.2 µM [falling, partial curve] | – |
| COc1ccc2cnnc(SCC(=O)Nc3ccc(C(C)=O)cc3)c2c1OC | -32.6 | – | 0.00517 µM [falling, full curve, poor fit] |
| COCCn1c(=NC(=O)c2ccco2)sc2cc(C(=O)OC)ccc21 | -12.6 | – | – |
| C=CCOC(=O)C(=O)/C=C/c1coc2ccccc2c1=O | -31.3 | 18.4 µM [falling, single point] | 25.9 µM [falling, single point] |
| O=C1CCC/C1=C/Nc1ccc2c(c1)OCO2 | – | 0.13 µM [rising, full curve] | – |
| CCNCc1cc(Cl)cc(OC)c1OC(C)C | 8.37 | 29.1 µM [rising, single point] | – |
| CN=C(Nc1cccc(OC)c1)SC1CC(=O)N(c2ccc(C(=O)O)cc2)C1=O (stereo unspecified) | – | 0.0259 µM [falling, full curve, poor fit] | – |
| Cc1ccc(C)c(NC(=O)Cn2nnc(C(=O)NCc3ccco3)c2N)c1 | 20.9 | – | – |
| Cc1ccc(NC(=O)C(C)N2C(=O)c3ccccc3C2=O)cc1C (stereo unspecified) | -6.61 | 6.51 µM [rising, single point] | – |
| COc1ccc(C(CCNC(C)c2ccccc2)C(C)C)cc1 (stereo unspecified) | 23.1 | 29.1 µM [rising, single point] | – |
| CN(C)S(=O)(=O)c1ccc(NC(=O)c2cc3ccccc3o2)cc1 | -14.3 | 0.461 µM [rising, full curve] | – |
| O=C(CN1CCN(c2cccc(Cl)c2)CC1)Nc1nccs1 | -24.1 | – | – |
| CC(NC(=O)Cn1nc(C(F)(F)F)c2c1CCC2)c1ccccc1 (stereo unspecified) | – | 1.16 µM [rising, single point] | – |

| SMILES | cell number change [%] | AC50 [1] | AC50 [2] |
| --- | --- | --- | --- |
| CCC1CN(C(=O)N2CCC(C(=O)NCc3ccc(F)cc3)CC2)c2ccccc2O1 (stereo unspecified) | 2.65 | – | – |
| COc1ccc(CN(C(=O)Cn2nnc3ccccc32)C(C(=O)NC(C)(C)C)c2ccco2)cc1 (stereo unspecified) | 16.8 | – | – |
| O=C(Cc1cccc2ccccc12)Nc1nc2ccccc2[nH]1 | 7.13 | – | 1.3 µM [rising, partial curve, poor fit] |
| Cc1noc(C)c1COc1cccc(C(=O)OC(C)C#N)c1 (stereo unspecified) | – | 6.51 µM [rising, single point] | – |
| CN1CCN(CC(O)COCc2ccc3c(c2)OCO3)CC1 (stereo unspecified) | 32.8 | 6.51 µM [rising, single point] | 0.326 µM [rising, full curve] |
| O=C(Cn1nnc(-c2ccccc2)n1)OCc1ccccc1 | 8.33 | 0.651 µM [rising, full curve, poor fit] | – |
| CN(CCOc1ccccc1)C(=O)c1ccc(F)c(S(=O)(=O)N2CCOCC2)c1 | 15 | – | – |
| CCN(C(=O)CSc1ncnc2sccc12)c1c(N)n(Cc2ccccc2)c(=O)[nH]c1=O | 8.33 | 6.51 µM [rising, single point] | – |
| CN(C(=O)CN1C(=O)NC(C)(CCc2ccccc2)C1=O)c1ccccc1 (stereo unspecified) | -6.5 | – | – |
| O=C(C#Cc1ccccc1)c1ccco1 | – | 1.3 µM [falling, full curve] | – |
| C=CCOc1ccc(/C=C/C(=O)OCC(=O)NCc2ccco2)cc1 | – | 2.31 µM [falling, partial curve] | – |
| CCn1c2ccccc2c2cc(/C=N/O)ccc21 | 19.8 | 10.3 µM [rising, partial curve, poor fit] | – |
| Cc1ccc(OCc2cc(C(=O)N3CCc4[nH]cnc4C3c3ccccn3)no2)cc1C (stereo unspecified) | 7.65 | 6.51 µM [rising, partial curve, poor fit] | – |
| COc1ccc(NC(=O)CN(c2ccc(F)cc2)S(=O)(=O)c2ccccc2)c(OC)c1 | -50.7 | 7.31 µM [falling, partial curve] | 6.51 µM [falling, partial curve] |
| N#C/C(=C/c1ccc(N2CCOCC2)o1)C(=O)N1CCOCC1 | 8.82 | 20.6 µM [falling, single point] | – |
| CCN(CC)c1ccc2cc(C(N)=O)c(=N)oc2c1 | -53.3 | 0.0291 µM [falling, full curve, poor fit] | 0.0259 µM [falling, full curve, poor fit] |
| COc1ccc(C2C(C(C)=O)=C(O)C(=O)N2CCc2c[nH]c3ccccc23)cc1 (stereo unspecified) | 34 | – | 29.1 µM [rising, single point] |
| CCCc1nnc(NC(=O)CCC(=O)N2CCC(Cc3ccccc3)CC2)s1 | -4.13 | 0.58 µM [rising, single point] | – |
| CCC(C)(C)NC(=O)C(c1cccc(OC)c1OC)N(C(=O)CCC(=O)Nc1cc(C)on1)C(C)C (stereo unspecified) | 24.2 | – | 2.91 µM [rising, full curve, poor fit] |
| CCC(C)C(=O)Nc1nc(C)c(-c2csc(Nc3cc(OC)ccc3OC)n2)s1 (stereo unspecified) | – | – | 6.51 µM [falling, single point] |

Molecules listed so far that have an aryl thioether with sulfur outside any ring:

| SMILES | cell number change [%] | AC50 [1] | AC50 [2] |
| --- | --- | --- | --- |
| Cc1ccc(C(C)NC(=O)CSc2ccc(S(=O)(=O)N3CCOCC3)cn2)cc1C (stereo unspecified) | 5.33 | 0.651 µM [falling, single point] | – |
| c1ccc(CCn2c3ccccc3c3nnc(SCc4ccc5nonc5c4)nc32)cc1 | – | 1.3 µM [rising, full curve] | 3.26 µM [rising, partial curve] |
| COc1ccc2cnnc(SCC(=O)Nc3ccc(C(C)=O)cc3)c2c1OC | -32.6 | – | 0.00517 µM [falling, full curve, poor fit] |
| CCN(C(=O)CSc1ncnc2sccc12)c1c(N)n(Cc2ccccc2)c(=O)[nH]c1=O | 8.33 | 6.51 µM [rising, single point] | – |
